Reference: PubChem BioAssay AID1159578 (Peter MacCallum Cancer Centre, 2015)

Purpose: 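Genome-wide hunt for genes controlling movement of lymphatic endothelial cells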 (primary screen)
Cell system: human lymphatic endothelial cells
Knock-down reagent: siRNA pool against human genes, 40 nM
Duration: 48 h after transfection
Measurement: 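Cells stained with dye and imaged after a scratch; covered wound area and nuclei counted, duplicates averaged, migration set against mock wells and turned into a robust z-score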
Direction: migration robust z-score: higher = faster migration into the scratch; migration relative to mock: higher = more scratch area covered than mock; nuclei per well: higher = more cells in the well
Hit rule: 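Pools averaging fewer than 3300 nuclei are never called; remaining pools count as changed when migration robust z lies outside -2 to 2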
Calls: active = migration changed; inactive = no migration change, or too few cells
Here is one part, drawn at random, of about 18,000 reagents tested. About 1,030 of them (5.7%) were called active. 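Inactive calls also include pools with fewer than 3300 nuclei, whose migration was not assessed.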 The raw values are shown without normalisation. A number with no mark means an inactive call. Reagent sequences are not shown.

| target gene | migration robust z-score | migration class with cell-count check | migration relative to mock | nuclei per well, duplicate mean |
| --- | --- | --- | --- | --- |
| HLA-E (major histocompatibility complex, class I, E) | 0.64 | migration z between -2 and 2; enough cells | 0.93 | 5570 |
| ISL2 (ISL LIM homeobox 2) | -2.91 (active) | migration z below -2; enough cells | 0.24 | 4010 |
| ITGAL (integrin subunit alpha L) | 0.24 | migration z between -2 and 2; enough cells | 0.85 | 5300 |
| YDJC (YdjC chitooligosaccharide deacetylase homolog) | -0.12 | migration z between -2 and 2; enough cells | 0.86 | 5347 |
| YIPF2 (Yip1 domain family member 2) | 0.6 | migration z between -2 and 2; enough cells | 1.04 | 5494 |
| MMP1 (matrix metallopeptidase 1) | 0.24 | migration z between -2 and 2; enough cells | 0.85 | 4826 |
| RNF215 (ring finger protein 215) | -0.88 | migration z between -2 and 2; enough cells | 0.64 | 4174 |
| THSD7B (thrombospondin type 1 domain containing 7B) | 0.54 | migration z between -2 and 2; enough cells | 1.02 | 6743 |
| LETM2 | -0.68 | migration z between -2 and 2; enough cells | 0.71 | 6150 |
| PTTG1IP (PTTG1 interacting protein) | 1.71 | migration z between -2 and 2; enough cells | 1.33 | 4862 |
| ATP5MC3 (ATP synthase membrane subunit c locus 3) | 0.8 | migration z between -2 and 2; enough cells | 0.96 | 4269 |

2 entries from above, set out differently:
target gene,migration robust z-score,migration class with cell-count check,migration relative to mock,"nuclei per well, duplicate mean"
"HLA-E (major histocompatibility complex, class I, E)",0.64,migration z between -2 and 2; enough cells,0.93,5570
ISL2 (ISL LIM homeobox 2),-2.91 (active),migration z below -2; enough cells,0.24,4010

The results go on.
| target gene | migration robust z-score | migration class with cell-count check | migration relative to mock | nuclei per well, duplicate mean |
| --- | --- | --- | --- | --- |
| TMPRSS9 (transmembrane serine protease 9) | -0.42 | migration z between -2 and 2; enough cells | 0.72 | 4332 |
| MIA (MIA SH3 domain containing) | 0.8 | migration z between -2 and 2; enough cells | 1.09 | 6516 |
| LRRC25 (leucine rich repeat containing 25) | 0.5 | migration z between -2 and 2; enough cells | 1.02 | 5998 |
| OR13D1 (olfactory receptor family 13 subfamily D member 1) | 1.03 | migration z between -2 and 2; enough cells | 1.16 | 7076 |
| STK4 (serine/threonine kinase 4) | -0.26 | migration z between -2 and 2; enough cells | 0.76 | 4825 |
| CCZ1 (CCZ1 vacuolar protein trafficking and biogenesis associated) | 0.08 | migration z between -2 and 2; enough cells | 0.9 | 5794 |
| GDAP2 (ganglioside induced differentiation associated protein 2) | 0.6 | migration z between -2 and 2; enough cells | 1.04 | 5520 |
| MPST (mercaptopyruvate sulfurtransferase) | -3.68 (active) | migration z below -2; enough cells | 0.1 | 4246 |
| ECEL1 (endothelin converting enzyme like 1) | 0.52 | migration z between -2 and 2; enough cells | 0.9 | 5400 |
| IL27RA (interleukin 27 receptor subunit alpha) | 0.08 | migration z between -2 and 2; enough cells | 0.82 | 5247 |
| BSG (basigin (Ok blood group)) | 0.04 | migration z between -2 and 2; enough cells | 0.9 | 5119 |
| L2HGDH (L-2-hydroxyglutarate dehydrogenase) | -0.03 | migration z between -2 and 2; enough cells | 0.8 | 5382 |
